# This continues a long series; more values of the same kind are listed elsewhere.
# System: C57BL/6J female mice
# Test: Survival of mice after whole body irradiation, SW033291 5 mg/kg IP
# Assay type: in vivo, mouse
structure (smiles),measurement,setting,value
"CCCC[S+]([O-])c1sc2nc(-c3cccs3)cc(-c3ccccc3)c2c1N (centres unmarked) [SW033291, 2-(butylsulfinyl)-4-phenyl-6-(thiophen-2-yl)thieno[2,3-b]pyridin-3-amine]",number of mice surviving,"Day 0, 7 Gy, daily for 7 doses",3
same,number of mice surviving,"Day 0, 11 Gy, 1 dose/daily for 7 days (Table 7)",3
same,number of mice surviving,"Day 0, 11 Gy, 1 dose/daily, continuous every day",3
same,number of mice surviving,"Day 0, 11 Gy, 7 days, 2 dose daily",3
same,number of mice surviving,"Day 0, 11 Gy, daily for 7 doses (Table 6)",3
same,number of mice surviving,"Day 5, 7 Gy, daily for 7 doses",3
same,number of mice surviving,"Day 5, 11 Gy, 1 dose/daily for 7 days (Table 7)",3
same,number of mice surviving,"Day 5, 11 Gy, 1 dose/daily, continuous every day",3
same,number of mice surviving,"Day 5, 11 Gy, 7 days, 2 dose daily",3
same,number of mice surviving,"Day 5, 11 Gy, daily for 7 doses (Table 6)",3
same,number of mice surviving,"Day 6, 7 Gy, daily for 7 doses",3
same,number of mice surviving,"Day 6, 11 Gy, 1 dose/daily for 7 days (Table 7)",3
same,number of mice surviving,"Day 6, 11 Gy, 1 dose/daily, continuous every day",3
same,number of mice surviving,"Day 6, 11 Gy, 7 days, 2 dose daily",3
same,number of mice surviving,"Day 6, 11 Gy, daily for 7 doses (Table 6)",3
same,number of mice surviving,"Day 7, 7 Gy, daily for 7 doses",3
same,number of mice surviving,"Day 7, 11 Gy, 1 dose/daily for 7 days (Table 7)",3
same,number of mice surviving,"Day 7, 11 Gy, 1 dose/daily, continuous every day",3
same,number of mice surviving,"Day 7, 11 Gy, 7 days, 2 dose daily",3
same,number of mice surviving,"Day 7, 11 Gy, daily for 7 doses (Table 6)",3
same,number of mice surviving,"Day 8, 7 Gy, daily for 7 doses",3
same,number of mice surviving,"Day 8, 11 Gy, 1 dose/daily for 7 days (Table 7)",2
same,number of mice surviving,"Day 8, 11 Gy, 1 dose/daily, continuous every day",3
same,number of mice surviving,"Day 8, 11 Gy, 7 days, 2 dose daily",3
same,number of mice surviving,"Day 8, 11 Gy, daily for 7 doses (Table 6)",3
same,number of mice surviving,"Day 9, 7 Gy, daily for 7 doses",3
same,number of mice surviving,"Day 9, 11 Gy, 1 dose/daily for 7 days (Table 7)",1
same,number of mice surviving,"Day 9, 11 Gy, 1 dose/daily, continuous every day",2
same,number of mice surviving,"Day 9, 11 Gy, 7 days, 2 dose daily",2
same,number of mice surviving,"Day 9, 11 Gy, daily for 7 doses (Table 6)",2
same,number of mice surviving,"Day 10, 7 Gy, daily for 7 doses",3
same,number of mice surviving,"Day 10, 11 Gy, 1 dose/daily for 7 days (Table 7)",0
same,number of mice surviving,"Day 10, 11 Gy, 1 dose/daily, continuous every day",0
same,number of mice surviving,"Day 10, 11 Gy, 7 days, 2 dose daily",0
same,number of mice surviving,"Day 10, 11 Gy, daily for 7 doses (Table 6)",0
same,number of mice surviving,"Day 11, 7 Gy, daily for 7 doses",3
same,number of mice surviving,"Day 11, 9 Gy, daily for 7 doses",3
same,number of mice surviving,"Day 12, 7 Gy, daily for 7 doses",3
same,number of mice surviving,"Day 13, 7 Gy, daily for 7 doses",3
same,number of mice surviving,"Day 14, 7 Gy, daily for 7 doses",3
same,number of mice surviving,"Day 15, 7 Gy, daily for 7 doses",3

# Source: patent US20230285402A1, “Compositions and Methods of Modulating Short-Chain Dehydrogenase Activity” (BOARD OF REGENTS OF THE UNIVERSITY OF TEXAS SYSTEM, priority 2013, published 2023)
